Results of single-concentration screens

The values are deposited in ChEMBL (CHEMBL3988442, “University of Dundee, Small-Polar-MMV Screening Library” (2021)).

Mtb cholesterol medium: 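Phenotypic screen: M. tuberculosis growth, cholesterol and DPPC medium, 4 days; the read-out is not stated. Concentration: 50 µM. Higher reads as more growth inhibition (inferred: compounds with an IC50 in retests scored well above the rest). Of about 69,000 compounds tested this way, about 370 (0.54%) reached 50% or more in at least one test.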
Mtb glucose medium: 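Growth of Mycobacterium tuberculosis over 3 days (7H9 medium with glucose and tyloxapol); the read-out is not stated. Tested at 50 µM. Direction is inferred from retests: higher values go with more growth inhibition. About 69,000 compounds were tested under these conditions; 1.1% (about 760) showed 50% or more at least once.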

Each number is a percent effect as filed. The record does not define 0% and 100%; most values in the screen are far below 50% and negative numbers occur (in some assays of this library far below -100). The compounds are a random part of those screened. Two or more numbers in one place are separate tests of the same structure; such repeats can differ widely.

- O=C(NCc1ccccc1CN1CCC(O)CC1)Nc1ccccn1 : Mtb cholesterol medium: 11.43% and 1.195%; Mtb glucose medium: -15.44%
- COCc1nc(CNC(=O)C(C)n2ccnc2C(C)C)no1 (centres undefined) : Mtb cholesterol medium: 4.817%; Mtb glucose medium: -2.47% and -13.52%
- [H][C@@]12CNC[C@]1([H])N(C(=O)C1CCCCC1)CCO2 : Mtb cholesterol medium: 16.61%; Mtb glucose medium: 1.121% and -17.48%
- Cc1cccc(CCC(=O)Nc2cccnc2N2CCC(O)CC2)c1 : Mtb cholesterol medium: -7.774%; Mtb glucose medium: 5.639% and -25.87%
- Cc1nn(C)c(N2CCOCC2)c1CNCC1CCS(=O)(=O)C1 (centres undefined) : Mtb cholesterol medium: -4.997%; Mtb glucose medium: -10.6%
- CC(C)N(C)S(=O)(=O)NCc1cccnc1N(C)C : Mtb cholesterol medium: -7.193%; Mtb glucose medium: 11.32%
- CN(C)c1cc(CNC(=O)C2COc3ccccc3O2)ccn1 (centres undefined) : Mtb cholesterol medium: 1.676%; Mtb glucose medium: -10.3%
- CC(=O)N1CCN(c2cc(-n3cnc(C)c3C)nc(C)n2)CC1 : Mtb cholesterol medium: 16.19% and -9.885%; Mtb glucose medium: 1.15%
- CC(=O)NCC(=O)N1CCC2(CC1)CN(c1cccnc1)C(=O)CO2 : Mtb cholesterol medium: -20.9%; Mtb glucose medium: -13.69%
- C[S+]([O-])c1nncn1CC(=O)c1cccc(C(F)(F)F)c1 (centres undefined) : Mtb cholesterol medium: 22.25%; Mtb glucose medium: 3.101% and 10.37%
- COCCCNc1c(-c2ccc(C)cc2)c(=O)c1=O : Mtb cholesterol medium: -6.634%; Mtb glucose medium: 6.8%
- CCC1CN(CC(=O)NCC(C)C)CCO1 (centres undefined) : Mtb cholesterol medium: -4.225%; Mtb glucose medium: 27.24%
- Cc1cnc(N2CCc3c(c(COc4cncnc4)nn3C)C2)nc1 : Mtb cholesterol medium: 6.13%; Mtb glucose medium: -1.668%
- CCOc1cc2c(cc1CNC(Cc1cccs1)c1nccs1)OCO2.Cl (centres undefined) : Mtb cholesterol medium: 10.55% and 14.23%; Mtb glucose medium: -3.522%
- CCOc1nn(CC)cc1-c1nnc(SCc2cccnc2)n1CC : Mtb cholesterol medium: 0.9644%; Mtb glucose medium: -0.5558% and 20.39%
- O=C(NCc1cccnc1)Nc1cc(C(F)(F)F)c[nH]c1=O : Mtb cholesterol medium: -11%; Mtb glucose medium: -6.096%
- COC(=O)Cn1ccc(NS(=O)(=O)c2ccc3c(c2)CCC3)n1 : Mtb cholesterol medium: -2.883%; Mtb glucose medium: -4.152%
- O=C(O)C(F)(F)F.[H][C@@]12CN(Cc3ccsc3)CCC[C@]1(C(=O)O)CN(c1ncccn1)C2 : Mtb cholesterol medium: 1.527%; Mtb glucose medium: 27.03% and -7.964%
- CCOCCn1c(=O)n(Cc2ccccc2F)c2cc(C(=O)O)cnc21 : Mtb cholesterol medium: -14.76% and -1.247%; Mtb glucose medium: -1.798% and 4.779%
- O=C(O)C(F)(F)F.[H][C@@]12CN(Cc3nccs3)C[C@]1([H])CN(C(=O)N1CCOCC1)C2 : Mtb cholesterol medium: -7.891%; Mtb glucose medium: 13.31%
- Cc1ncsc1C(=O)N1CCCC1c1c(C)nn(C)c1Cl (centres undefined) : Mtb cholesterol medium: 2.673%; Mtb glucose medium: 10.77%
- CN(Cc1nncn1C)C(=O)c1cc(COc2ccccc2F)[nH]n1 : Mtb cholesterol medium: -21.09%; Mtb glucose medium: -22.43% and 3.223%
- CS(=O)(=O)N1CCCn2nc(CNc3cc(C#N)ccn3)cc2C1 : Mtb cholesterol medium: -6.241%; Mtb glucose medium: -1.365%
- COc1ccc(CN2CCCC2)cc1Oc1ccc(NC(C)=O)cc1 : Mtb cholesterol medium: 12.02%; Mtb glucose medium: 19.79%
- OCCCN1CCCC1c1ccc(Br)cc1 (centres undefined) : Mtb cholesterol medium: 10.13%; Mtb glucose medium: 8.401% and 10.69%
- O=C(NCC1CCCCC1)c1nnn(-c2ccc(Br)cc2)n1 : Mtb cholesterol medium: 21.11%; Mtb glucose medium: 5.717% and 13.87%
- N#Cc1ccccc1NC(=O)c1ccc2c(c1)OCO2 : Mtb cholesterol medium: 4.411%; Mtb glucose medium: 7.731%
- CCCNC(=O)CN1CCC(C(=O)Nc2cnn(CC)c2)CC1 : Mtb cholesterol medium: -22.11%; Mtb glucose medium: -7.355%
- Cn1nccc1NC(=O)Cn1ccc(-c2ccc3c(c2)OCO3)n1 : Mtb cholesterol medium: -10.69%; Mtb glucose medium: 1.111%
- CCCc1noc(CS(=O)(=O)c2cccc(OC)c2)n1 : Mtb cholesterol medium: 43.91%; Mtb glucose medium: 40.87%
- O=S(=O)(c1ccc(-c2cnco2)cc1)N1CCCC2(CCNCC2)CC1 : Mtb cholesterol medium: 7.29%; Mtb glucose medium: 12.8%
- CN(C)CCOCC1CN(CCN(C)C)Cc2ccnn2C1 (centres undefined) : Mtb cholesterol medium: -22.48%; Mtb glucose medium: -35.75%
- CCc1nnc2n1CCN(Cc1cccc3c1OCCO3)C2 : Mtb cholesterol medium: -9.799%; Mtb glucose medium: -5.71%
- COc1ccc(-c2nc(CCNCc3ccncc3)co2)cc1 : Mtb cholesterol medium: 11.73% and 26.96%; Mtb glucose medium: 30.3%
- Cc1ncc(CN2CCOC(c3ccc(-c4cc[nH]n4)cn3)C2)s1 (centres undefined) : Mtb cholesterol medium: -23.48%; Mtb glucose medium: 7.715%
- NC(=O)C1CCN(CCc2ccc(NCc3cccnc3)cc2)CC1 : Mtb cholesterol medium: -4.189%; Mtb glucose medium: 15.91% and -2.231%
- CCN(CCCNC(=O)c1cc2cccc(F)c2o1)S(C)(=O)=O : Mtb cholesterol medium: -4.666%; Mtb glucose medium: 7.418% and 5.675%
- CSCC(=O)N[C@H]1CN(CC2CCOCC2)C[C@@H]1c1ccccc1 : Mtb cholesterol medium: 9.141%; Mtb glucose medium: 0.3524% and -10.33%
- Cc1nnc(N2CCCC(CS(N)(=O)=O)C2)c(C#N)c1C (centres undefined) : Mtb cholesterol medium: 0.1036%; Mtb glucose medium: -7.236%
- CC(C)Cc1n[nH]c(C2CC(=O)N(CC(C)C)C2)n1 (centres undefined) : Mtb cholesterol medium: 11.73% and 4.625%; Mtb glucose medium: -3.049%
- COCc1ccc(C(=O)N2CCC(c3cc4nccnc4[nH]3)CC2)cc1 : Mtb cholesterol medium: 45.21%; Mtb glucose medium: 43.05%
- CCCC(=O)N(Cc1ccncc1)C(C)CC (centres undefined) : Mtb cholesterol medium: -7.11%; Mtb glucose medium: 6.657%
- O=C(O)C(F)(F)F.[H][C@@]12COC[C@@H](CC(=O)NCCOC)[C@]1([H])CN(CC1CCOCC1)C2 : Mtb cholesterol medium: 1.46%; Mtb glucose medium: -25.6%
- Cc1n[nH]c(C)c1CNC(=O)NC1CCCCC1 : Mtb cholesterol medium: -4.171%; Mtb glucose medium: -0.942% and -0.5688%